PubChem BioAssay AID1224826 | NIAID, 2016
The whole screen tested about 17,000 reagents; below is a part drawn at random. About 1,110 of them (6.6%) were called active. 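Active means lowered or raised reporter signal; replicate intensities are raw and not normalised per plate.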 Further read-outs or replicates are left out here.

Test: 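Knock-downs that raise or lower Tnf reporter signal after endotoxin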 (primary screen)
Cells: RAW264.7 G9 macrophages from mouse bearing reporters for p65 (GFP) and the Tnf promoter (mCherry)
Reagent: siRNA pool against mouse genes, 100 nM
Timing: 16 h of LPS stimulation, after 2 days of siRNA transfection
Conditions: bacterial lipopolysaccharide (Salmonella minnesota R595), 10 ng/ml
Measured: 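Imaged Tnf reporter mCherry in nuclei, minus background, normalised per plate to the median and expressed as robust z-scores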
Scale: Tnf reporter robust z-score: higher = stronger Tnf promoter reporter signal after LPS
Active means: 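a well counts as active at a score of -1.3 or below (Tlr4 knock-down control median) or above 3 (raised signal); controls and wells holding fewer than 50 cells are excluded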
Calls: active = Tnf reporter clearly lowered or raised; inactive = no clear change in Tnf reporter

target gene | Tnf reporter robust z-score | fewer than 50 cells in well | Call
Rapgef3 | 0.84 | enough cells in well | inactive
Grm5 | 0.22 | enough cells in well | inactive
Prelp | 1.49 | enough cells in well | inactive
Stxbp1 | -0.33 | enough cells in well | inactive
Bmp8b | 1.49 | enough cells in well | inactive
Tlx3 | – | fewer than 50 cells per well; well left out of calls | inactive
Zbtb1 | 1.18 | enough cells in well | inactive
Ppp2r5b | 0.83 | enough cells in well | inactive
Sgce | 0.7 | enough cells in well | inactive
Junb | 0.04 | enough cells in well | inactive
Gm11545 | -0.56 | enough cells in well | inactive
Snrnp200 | -1 | enough cells in well | inactive
Gnb1l | 2.18 | enough cells in well | inactive
Etl4 | 1.92 | enough cells in well | inactive
Ppa2 | -0.65 | enough cells in well | inactive
Gns | 0.25 | enough cells in well | inactive
Itpr3 | -1.26 | enough cells in well | inactive
Bacc1 | 1.75 | enough cells in well | inactive
1700029F12Rik | 2.17 | enough cells in well | inactive
Vangl1 | -0.98 | enough cells in well | inactive
Mrpl39 | 1.86 | enough cells in well | inactive
Smyd4 | – | fewer than 50 cells per well; well left out of calls | inactive
Ophn1 | 0.51 | enough cells in well | inactive

Laid out differently: results already given
{"target gene":"Zbtb1","Tnf reporter robust z-score":1.18,"fewer than 50 cells in well":"enough cells in well","Call":"inactive"}
{"target gene":"Ppp2r5b","Tnf reporter robust z-score":0.83,"fewer than 50 cells in well":"enough cells in well","Call":"inactive"}
{"target gene":"Sgce","Tnf reporter robust z-score":0.7,"fewer than 50 cells in well":"enough cells in well","Call":"inactive"}
{"target gene":"Junb","Tnf reporter robust z-score":0.04,"fewer than 50 cells in well":"enough cells in well","Call":"inactive"}

Further entries follow:
target gene | Tnf reporter robust z-score | fewer than 50 cells in well | Call
Efnb2 | -0.73 | enough cells in well | inactive
Or6c88 | – | fewer than 50 cells per well; well left out of calls | inactive
Six3os1 | 2.84 | enough cells in well | inactive
Mrpl4 | -0.5 | enough cells in well | inactive
Gatad2b | 0.17 | enough cells in well | inactive
Wdr37 | -0.24 | enough cells in well | inactive
Tcl1 | 0.34 | enough cells in well | inactive
Daxx | -0.44 | enough cells in well | inactive
Tpcn2 | -1.46 | enough cells in well | active
BC107364 | 2.69 | enough cells in well | inactive
Rab33a | -0.21 | enough cells in well | inactive
Ppnr | 0.66 | enough cells in well | inactive
Kcnh5 | -0.66 | enough cells in well | inactive
Erbb2 | -0.56 | enough cells in well | inactive
Igsf21 | – | fewer than 50 cells per well; well left out of calls | inactive
Nipal2 | 1.03 | enough cells in well | inactive
Or52h7 | 4.45 | enough cells in well | active
